Results reported in PMC3092770.
Results are given in words; binding and its absence hold for the method and conditions named. Binding seen in cells or lysates may run through a third protein. Some binding calls cover weakened binding; strength is not graded here.

By UniProt entry, the sequences of proteins in these tests, tags left out.
UniProt Q8TB72: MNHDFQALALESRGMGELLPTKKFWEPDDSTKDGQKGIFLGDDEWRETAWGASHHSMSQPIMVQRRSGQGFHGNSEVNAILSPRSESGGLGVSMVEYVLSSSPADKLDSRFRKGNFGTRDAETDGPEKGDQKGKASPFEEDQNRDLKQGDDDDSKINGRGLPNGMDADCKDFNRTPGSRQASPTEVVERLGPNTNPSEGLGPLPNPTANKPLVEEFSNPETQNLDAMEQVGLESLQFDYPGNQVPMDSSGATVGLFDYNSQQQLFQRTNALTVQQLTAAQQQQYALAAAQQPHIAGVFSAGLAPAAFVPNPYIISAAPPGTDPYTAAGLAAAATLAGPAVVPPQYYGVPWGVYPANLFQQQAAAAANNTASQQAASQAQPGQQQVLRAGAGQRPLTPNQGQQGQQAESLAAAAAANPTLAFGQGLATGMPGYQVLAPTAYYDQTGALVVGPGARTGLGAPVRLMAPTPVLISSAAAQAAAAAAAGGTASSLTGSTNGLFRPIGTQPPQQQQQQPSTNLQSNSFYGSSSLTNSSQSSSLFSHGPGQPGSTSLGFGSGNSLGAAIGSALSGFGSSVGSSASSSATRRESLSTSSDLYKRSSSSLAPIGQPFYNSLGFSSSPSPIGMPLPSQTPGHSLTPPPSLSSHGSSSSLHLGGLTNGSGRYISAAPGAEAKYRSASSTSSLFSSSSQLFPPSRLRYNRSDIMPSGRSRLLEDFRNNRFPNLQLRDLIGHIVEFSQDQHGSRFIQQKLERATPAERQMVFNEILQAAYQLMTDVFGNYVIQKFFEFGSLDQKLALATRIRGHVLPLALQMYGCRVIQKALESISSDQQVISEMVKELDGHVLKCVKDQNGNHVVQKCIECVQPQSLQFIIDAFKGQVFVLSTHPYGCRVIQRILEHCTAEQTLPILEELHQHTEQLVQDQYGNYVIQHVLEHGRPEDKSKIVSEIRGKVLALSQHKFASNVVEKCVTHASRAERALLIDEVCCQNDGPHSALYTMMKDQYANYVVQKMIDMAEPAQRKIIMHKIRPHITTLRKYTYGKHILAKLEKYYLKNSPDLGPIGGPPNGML

Target: endogenous PUM2 (human (endogenous in CL1–5)) (UniProt Q8TB72)
Test: proximity ligation; in situ PLA (Duolink) in fixed CL1–5 cells with anti-PUM2 and anti-Aurora-A antibodies; single primary antibodies as negative controls

binding: binds
B1: endogenous Aurora-A (enzyme, UniProt O14965 1-403)
chain: MDRSKENCISGPVKATAPVGGPKRVLVTQQFPCQNPLPVNSGQAQRVLCPSNSSQRIPLQAQKLVSSHKPVQNQKQKQLQATSVPHPVSRPLNNTQKSKQPLPSAPENNPEEELASKQKNEESKKRQWALEDFEIGRPLGKGKFGNVYLAREKQSKFILALKVLFKAQLEKAGVEHQLRREVEIQSHLRHPNILRLYGYFHDATRVYLILEYAPLGTVYRELQKLSKFDEQRTATYITELANALSYCHSKRVIHRDIKPENLLLGSAGELKIADFGWSVHAPSSRRTTLCGTLDYLPPEMIEGRMHDEKVDLWSLGVLCYEFLVGKPPFEANTYQETYKRISRVEFTFPDFVTEGARDLISRLLKHNPSQRPMLREVLEHPWITANSSKPSNCQNKESASKQS
